Our source for the AC50 values is PubChem BioAssay AID1487 (National Center for Advancing Translational Sciences (NCATS), 2009).

Each structure is given as a SMILES string. Values joined by “and” are separate entries in the source; they are usually repeats but may differ in a detail not shown here. Identical values can stand only once. Some of the results follow. These are further read-outs of the screen, such as a control signal, another cell line or another target. No call is given for them. Compounds called inactive in the main read-out are mostly missing here. Words in brackets tell the shape of the fitted curve; partial curves, single points and poor fits give uncertain potencies.

This experiment in a line: qHTS Assay for Modulators of Lamin A Splicing. The settings on record: HeLa LMNA splicing GFP/RFP minigene ratio, 48 h. The method in brief:
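S3 HeLa stable clones carrying a lamin A-EGFP splicing minigene plus DsRed2 were seeded at 600 cells/well in Opti-MEM with 2% FBS, pin-dosed and incubated 48 h at 37°C. Acumen cytometry (488 nm) gave the GFP/RFP total-intensity ratio.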

The mark [1] stands for this setting: measured here: GFP splicing reporter channel.
Setting [2] is: measured here: RFP viability control channel.

As to `O=C(c1ccc2c(c1)N(Cc1cccc(Cl)c1)C(=O)c1ccccc1S2(=O)=O)N1CCN(Cc2ccccc2)CC1`, the AC50 runs as follows: under setting [1], 14.1 µM [falling, partial curve]; under setting [2], 8.91 µM [falling, full curve].
On to `Clc1cc(Br)ccc1OCCCNCc1ccccc1`, for which, under setting [1], the AC50 is 25.1 µM [rising, partial curve, poor fit].
Same read-out and setting: next, `CCCCCCc1nc2ccccc2c(=O)n1NC(=O)c1c(O)c2c(n(CC(C)C)c1=O)CCCC2`: 12.6 µM [falling, partial curve, poor fit].
Turning to `CCNc1nc(NC(C)C)nc(OCCOC(=O)Nc2ccccc2)n1`, the AC50 under setting [2] was 12.6 µM [rising, single point].
Consider `Cc1cc(N(C)NC(=S)Nc2ccccc2)nc(C)n1`, for which the AC50 reads like this: under setting [1], 0.0501 µM [rising, full curve, poor fit]; under setting [2], 10 µM [rising, partial curve].
In the case of `CN(C)S(=O)(=O)c1cc(NC(=O)CSc2nn(-c3ccc(Cl)cc3)c(=S)s2)ccc1Cl`, the AC50 under setting [2] was 22.4 µM [rising, single point].
On to `Cc1cc(C)c2nc(N3CCN(C)CC3)c(C#N)cc2c1`, for which the AC50 under setting [1] is 0.00398 µM [rising, full curve, poor fit].
Still for that read-out and setting: next, `COc1cc(-c2noc(C3CC(=O)N(c4ccc5c(c4)OCCO5)C3)n2)cc(OC)c1OC` (stereo not given): 3.98 µM [falling, partial curve].
Take `Cc1cccc(NC(=O)Nc2ccc(C#N)cc2)n1`: the AC50 is 6.31 µM [rising, single point] under setting [1] and 5.62 µM [rising, single point] under setting [2].
With `CC(C)N(C(=O)CSc1nc2ccccc2c(=O)[nH]1)C(C)C`, the AC50 under setting [1] was 0.891 µM [falling, full curve, poor fit].
For `COc1ccc(C(=O)COC(=O)c2ccc(NC(=O)c3ccccc3)cc2)cc1`, the AC50 under setting [1] is 28.2 µM [falling, partial curve] and the AC50 under setting [2] is 35.5 µM [falling, single point].
In the case of `CCc1ccc(NC(=O)c2cc3c(=O)n(Cc4cccs4)ccc3nc2C)cc1`, the AC50 under setting [1] is 10 µM [rising, partial curve] and the AC50 under setting [2] is 11.2 µM [rising, partial curve].
For the compound `COc1ccc(C(=O)Nc2ccc(-n3nncc3-c3ccc(OC)c(OC)c3)cc2)cc1`, under setting [1], the AC50 was 14.1 µM [falling, partial curve].
For `CCN(CC)CC(=O)Nc1c(C)cccc1C`, the half-maximal activity concentration (AC50) by setting is: under setting [1], 0.00708 µM [falling, full curve, poor fit]; under setting [2], 31.6 µM [rising, single point] and 4.47 µM [falling, partial curve, poor fit] and 316 nM [falling, full curve, poor fit].
`CC(C)Sc1nnc(NC(=O)C2CC2)s1`: the AC50 under setting [1] was 0.00447 µM [rising, full curve, poor fit].
Consider `COc1ccc(S(=O)(=O)N2CCOC2CNC(=O)C(=O)NCCc2ccc(OC)c(OC)c2)cc1C` (stereo not given), for which the AC50 runs as follows: under setting [1], 10 µM [rising, partial curve]; under setting [2], 12.6 µM [rising, partial curve].
For the compound `Cc1ccc(-c2cn3c(n2)sc2cc(C(=O)NCCCc4ccccc4)ccc23)cc1`, the concentration at half-maximal activity (AC50) under setting [2] was 0.0316 µM [falling, full curve].
With `COc1ccc(C(=O)Nc2cccc(/C(C)=N/NC(=O)c3ccc([N+](=O)[O-])c(C)c3)c2)cc1OC`, the AC50 under setting [2] was 17.8 µM [rising, partial curve, poor fit].
`COc1ccc(NS(=O)(=O)c2ccc(NC(=O)N3CCCC3)cc2)cc1`: the AC50 was 0.562 µM [falling, partial curve] under setting [1] and 2.82 µM [falling, partial curve] under setting [2].
Turning to `O=C1OC(c2ccccc2)=N/C1=C\C=C\c1ccco1`, the AC50 under setting [1] is 15.8 µM [falling, single point] and the AC50 under setting [2] is 0.00447 µM [falling, full curve, poor fit].
For the compound `COc1ccccc1OCCC(=O)Nc1cccc(S(=O)(=O)N2CCCCC2)c1`, the concentration at half-maximal activity (AC50) is, setting by setting: under setting [1], 2.51 µM [rising, partial curve]; under setting [2], 10 µM [rising, partial curve].
Consider `Cc1cc(C)cc(NC(=S)NC2CC3CCCC(C2)N3C2CC2)c1` (stereo not given), for which the concentration at half-maximal activity (AC50) under setting [1] was 28.2 µM [falling, single point].
Still for that read-out and setting: next, `COc1ccc(Nc2cc(C)nc(-n3nc(C)cc3C)n2)cc1Cl`: 3.98 µM [falling, full curve, poor fit].
As to `COc1c(C)c2c(c(O)c1CC=C(C)CCC(=O)OCCN1CCOCC1)C(=O)OC2`, the AC50 under setting [1] was 0.631 µM [falling, full curve] and the AC50 under setting [2] is 0.562 µM [rising, full curve].
As for `Cc1cccc(-c2nnc3n2N=C(c2ccccc2Br)CS3)c1`, the AC50 under setting [1] is 11.2 µM [rising, single point] and the AC50 under setting [2] is 11.2 µM [rising, partial curve].
As to `CCc1ccc(-c2cc(C(F)(F)F)n3nc(C(=O)Nc4c(C)nn(Cc5ccc(F)cc5)c4C)cc3n2)s1`, the half-maximal activity concentration (AC50) is, setting by setting: under setting [1], 35.5 µM [rising, single point]; under setting [2], 14.1 µM [rising, partial curve].
Take `COC(=O)C1=C(C)NC(C)=C(C(=O)OC)C1/C=C/c1ccccc1`: the AC50 under setting [2] is 35.5 µM [rising, single point].
As for `CCC(Sc1nc2cc3c(cc2c(=O)n1Cc1ccco1)OCO3)C(=O)Nc1cccc(OC)c1` (stereo not given), the AC50 under setting [2] was 20 µM [falling, partial curve, poor fit].
Take `CCCCc1c(C)nc2c(OC)cccc2c1SCCC(=O)O`: the AC50 is 7.94 µM [rising, partial curve] under setting [1] and 10 µM [rising, partial curve, poor fit] under setting [2].
For the compound `O=S(=O)(Nc1nc2c(s1)CCCC2)c1ccc(Br)cc1`, under setting [2], the AC50 was 25.1 µM [rising, single point].
As for `O=C(Nc1ccc(Cc2ccncc2)cc1)c1ccc(N2CCOCC2)c([N+](=O)[O-])c1`, the concentration at half-maximal activity (AC50) under setting [2] is 35.5 µM [rising, single point].
The same measure, in the same setting: next, `COc1cccc(NC(=O)CSc2nc3ccc(NC(=O)c4ccco4)cc3s2)c1`: 22.4 µM [rising, partial curve]; `Cc1ccc(SC(C)C(=O)Nc2cccc(N(C)S(C)(=O)=O)c2)cc1` (stereo not given): 11.2 µM [rising, single point].
For `CCNC(=O)c1ccc(CSc2ccc(Cl)cc2)cc1`, the AC50 under setting [2] is 31.6 µM [rising, single point].
The same measure, in the same setting: the same measure for `CC(=O)Nc1ccc(OCC(O)Cn2c3ccccc3c3ccccc32)cc1` (stereo not given): 35.5 µM [rising, single point]; for `COc1cccc(CC(=O)N2CCc3nc(-c4ccc(OC)cc4C)c4c(c3C2)CO[C@@H](c2ccccc2)C4)c1`: 6.31 µM [rising, single point]; for `Cc1sc(NC(=S)NC(=O)c2ccc(C(C)(C)C)cc2)c(C#N)c1C`: 5.01 µM [rising, partial curve].
For the compound `CCOC(=O)c1c(-c2cccc(C)c2)csc1NC(=O)C1CC=CCC1C(=O)O` (stereo not given), the AC50 by setting is: under setting [1], 15.8 µM [rising, single point]; under setting [2], 12.6 µM [rising, single point].
As to `COc1cc(C2C3=C(Nc4ncnn42)c2ccccc2CC3)cc(OC)c1OC` (stereo not given), the AC50 under setting [1] is 2.51 µM [rising, full curve, poor fit].
The same measure, in the same setting: the same measure for `COc1ccc(NC(=O)c2sccc2-n2cccc2)cc1`: 25.1 µM [falling, single point].
As to `C=CCn1c(COc2ccccc2)nnc1SC(C)C(=O)N/N=C/c1cc(Cl)ccc1O` (stereo not given), the AC50 under setting [2] was 17.8 µM [rising, single point].
As to `Cc1cc(C(=O)N[C@H](c2ccccc2)[C@@]2(C)C[C@@H]2[C@@H](C)C(=O)Nc2ccc3ccccc3c2)n(C)n1`, the AC50 under setting [2] is 14.1 µM [rising, single point].
Consider `O=C(O)[C@@H]1C[C@H](C(=O)O)N1`, for which the concentration at half-maximal activity (AC50) under setting [1] is 0.794 µM [falling, full curve, poor fit] and the AC50 under setting [2] was 12.6 µM [falling, partial curve, poor fit].
`COc1ccc(-c2cc(OC)c3ccccc3n2)cc1`: the AC50 reads like this: under setting [1], 4.47 µM [rising, partial curve, poor fit]; under setting [2], 10 µM [rising, partial curve].
With `CCC(C)N1C(=O)S/C(=C/c2ccc(N3CCOCC3)cc2C)C1=O` (stereo not given), the AC50 runs as follows: under setting [1], 12.6 µM [rising, single point]; under setting [2], 15.8 µM [rising, single point].
Take `Cc1nc(-c2cccc(S(=O)(=O)N3CC(C)OC(C)C3)c2)cs1` (stereo not given): the AC50 is 0.0794 µM [rising, single point] under setting [1] and 0.0891 µM [rising, single point] under setting [2].
Regarding `O=C(CSc1ccccc1)NCc1ccc2c(c1)CCN2C(=O)c1ccc(F)cc1`, the concentration at half-maximal activity (AC50) was 3.98 µM [rising, full curve] under setting [1] and 8.91 µM [rising, partial curve] under setting [2].
Take `CC(C)(C)n1cnc(C(N)=O)c1N`: the AC50 under setting [2] was 1 µM [falling, partial curve].
For `CC(C)=CCN1CCN(Cc2c(C)nn(C)c2Cl)CC1CCO` (stereo not given), the AC50 under setting [1] was 35.5 µM [rising, single point].
Take `N=c1c2c3c(sc2ncn1N)CCCCC3`: the half-maximal activity concentration (AC50) under setting [2] was 35.5 µM [rising, single point].
Same read-out and setting: next, `CCc1ccc(CNC(=O)CCCN2C(=O)c3cccnc3Oc3ccc(Cl)cc32)cc1`: 0.01 µM [rising, full curve, poor fit].
As for `O=C(COc1ccccc1)Nc1nnc(S(=O)(=O)N2CCCCCC2)s1`, the half-maximal activity concentration (AC50) under setting [2] was 0.0398 µM [falling, full curve, poor fit].
In the case of `COc1ccc(C(O)C(CN2CCOCC2)c2ccccc2)cc1F` (stereo not given), under setting [2], the AC50 was 0.0794 µM [falling, full curve, poor fit].
As to `COc1ccc(OCCCC(=O)Nc2cccc(C(C)=O)c2)cc1`, the AC50 was 22.4 µM [rising, partial curve, poor fit] under setting [1] and 22.4 µM [rising, partial curve, poor fit] under setting [2].

A word on the AC50: it is the concentration giving half of the maximal activity seen.
